# Experimental data published in PubChem BioAssay AID504834 (National Center for Advancing Translational Sciences (NCATS), 2011).
# About 22,000 (6.9%) of roughly 320,000 compounds were called active. Inconclusive means that the source gave no clear call. Such entries were picked first, then a sample of the others. Calls come from the whole dose curve; as a rule, active = well fitted inhibition curve with a large enough effect; inconclusive = small, poorly fitted or top-dose-only effect, or another doubt; inactive = no such curve, though single readings can be large or run the other way. A potency beside an inconclusive call is a rough fit, not a confirmed value.
# Experiment: Primary qHTS for delayed death inhibitors of the malarial parasite plastid, 96 hour incubation
# Conditions: P. falciparum luciferase reporter growth; series mostly up to 28.7 µM; activity change, negative = inhibition: at the top concentration
# Outline: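 Luminescence readout: decreased luciferase signal marks inhibited growth of reporter-expressing P. falciparum in infected red cells (2% hematocrit, 0.05% parasitemia final), exposed to compound two generations (96 h, 37 C, 5% CO2).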
# % is set by controls: 0 for no effect and ±100 for the full control effect; potency is the fitted concentration of half-maximal effect.
SMILES,Potency,"activity change, negative = inhibition"
COc1cc(-c2nc(CN(C)Cc3nnc(C)o3)c(C)o2)ccc1F,"inconclusive: 18.5 µM [inhibitor, single point]",
COc1ccc(N(C)C(=S)Nc2ccc3nc(C)c(C)nc3c2)cc1,active: 2.33 µM,
N#CCSc1ccccc1NC(=O)CN1C(=O)C2CC=CCC2C1=O (stereo unspecified),,inactive: 2.27%
O=C(c1cc(F)ccc1F)C1CCCN(C(=O)CCN2CCCCO2)C1 (stereo unspecified),"inconclusive: 8.28 µM [inhibitor, single point]",
COc1ccc2c(c1)CC/C(=C\C=C\c1ccccc1)C2=O,"inconclusive: 18.5 µM [inhibitor, single point]",
O=C(NCCCN1CCCC1=O)c1ccc2c(c1)NC(=O)C(N1CCOCC1)S2 (stereo unspecified),active: 0.928 µM,
c1ccc(Nc2ncnc3sccc23)cc1,,inactive: 18.3%
CCCn1c(N)c(C(=O)CN(C)CC(=O)Nc2ccccc2C(F)(F)F)c(=O)[nH]c1=O,"inconclusive: 4.65 µM [inhibitor, partial curve, poor fit]",
COCC(C)n1c(C)cc(C(=O)CSc2nc3ccccc3c(=O)[nH]2)c1C (stereo unspecified),"inconclusive: 18.5 µM [inhibitor, single point]",
COc1ccc(C)cc1-n1nnnc1SCC(=O)Nc1cccnc1Cl,,inactive: 14.5%
FC(F)(F)c1nnc2n1N=C(c1cccs1)CS2,,inactive: 19.8%
COc1cc(OC)c(N(C)S(=O)(=O)c2cccc(C(=O)Nc3nnc(C4CC4)s3)c2)cc1Cl,"inconclusive: 10.4 µM [inhibitor, single point]",
Cc1ccc(S(=O)(=O)n2c3ccc(Cl)cc3c3nc(C)sc32)cc1,"inconclusive: 18.5 µM [inhibitor, single point]",
CSc1nsc(SCC(=O)NCc2ccccc2)n1,"inconclusive: 18.5 µM [inhibitor, single point]",
CN(Cc1ccccc1)S(=O)(=O)c1ccc(N2CCCC2=O)cc1,"inconclusive: 11.7 µM [inhibitor, single point]",
O=C(CNC(=O)c1ccc(Br)cc1)N/N=C/c1cccnc1,"inconclusive: 18.5 µM [inhibitor, single point]",
COc1ccc(C2=NN(C(=O)c3cccnc3)C(c3ccccc3)C2)cc1 (stereo unspecified),"inconclusive: 14.7 µM [inhibitor, single point]",
Cc1ccc(CN2CCN(Cc3cnc(C)s3)CC2CCO)o1 (stereo unspecified),,inactive: 3.83%
COc1ccc(NC(=O)N2CCCC(c3ccccc3)C2)cc1 (stereo unspecified),active: 2.08 µM,
CCCn1cc([C@@H]2C[C@H]3CN(Cc4cccc(Cl)c4)C(=O)[C@]34CCCN24)c(C)n1,"inconclusive: 10.4 µM [inhibitor, partial curve, poor fit]",
COc1ccc2c(c1)O[C@H](c1ccc3c(c1)OCO3)[C@@H](O)C2=O,"inconclusive: 11.7 µM [inhibitor, single point]",
CCOC(=O)N1CCN(CC(=O)Nc2sc(CC)cc2C(=O)c2ccc(OC)cc2)CC1,active: 10.4 µM,
Cc1ccc(Cn2ncc3c(NN)ncnc32)cc1,"inconclusive: 13.1 µM [inhibitor, single point]",
Cc1nc2ccc(C(=O)OCc3ccccc3Br)cc2nc1C,,inactive: 48.8%

# Reformatted: entries from further up.
SMILES | Potency | activity change, negative = inhibition
COc1cc(OC)c(N(C)S(=O)(=O)c2cccc(C(=O)Nc3nnc(C4CC4)s3)c2)cc1Cl | inconclusive: 10.4 µM [inhibitor, single point] | 
COc1ccc(C2=NN(C(=O)c3cccnc3)C(c3ccccc3)C2)cc1 (stereo unspecified) | inconclusive: 14.7 µM [inhibitor, single point] | 
CCOC(=O)N1CCN(CC(=O)Nc2sc(CC)cc2C(=O)c2ccc(OC)cc2)CC1 | active: 10.4 µM | 

# The list goes on.

SMILES,Potency,"activity change, negative = inhibition"
CO/N=C\CC(=O)Nc1ccc(Cl)c(Cl)c1,,inactive: 44.3%
O=C(O)CCCNC(=O)/C(=C\c1ccc(Cl)cc1)NC(=O)c1ccccc1Br,,inactive: -7.9%
CCN(CC)CCN(C(=O)c1ccc2c(c1)CCCC2)c1nc2ccc(OC)cc2s1,"inconclusive: 18.5 µM [inhibitor, single point]",
COc1ccc(NC(=O)C2=C(C)Nc3nc(CCCO)nn3C2c2ccc(OC)c(OC)c2)cc1 (stereo unspecified),,inactive: 6.83%
CCOC(=O)C1=NN(C(=O)COc2ccccc2)C(O)(c2ccc(Br)cc2)C1 (stereo unspecified),active: 2.94 µM,
CCN(CC)C(=O)CSCc1cnn(-c2ccccc2)c1-n1cccc1,"inconclusive: 16.5 µM [inhibitor, single point]",
Cc1cc(F)ccc1NC(=S)NC1CCCC1,,inactive: -11.1%
Cc1ccc(S(=O)(=O)NC(=O)c2ccccc2)cc1C(C)C,"inconclusive: 10.4 µM [inhibitor, partial curve]",
COCc1cc(=O)[nH]c2cc(NC(=O)C3CC3)c(C)cc12,,inactive: 64.9%
NNC(=O)Cn1nc2n(c1=O)-c1ccccc1SC2,,inactive: 0%
O=C(COc1ccc(S(=O)(=O)N2CCCCC2)cc1)N1CCN(Cc2ccccc2)CC1,,inactive: 3.38%
CCCC(=O)N1c2ccccc2NC2=C(C(=O)CCC2)C1c1ccc(F)cc1 (stereo unspecified),"inconclusive: 0.0828 µM [inhibitor, full curve, poor fit]",
C=CCn1c(COc2ccc(F)cc2)nnc1SCC(=O)NC(=O)NCc1ccco1,"inconclusive: 11.7 µM [inhibitor, partial curve, poor fit]",
CC[C@@H]1C=C(C)C[C@H](C)C[C@H](OC)[C@H]2O[C@@](O)(C(=O)C(=O)N3CCCC[C@H]3C(=O)O[C@H](/C(C)=C/[C@@H]3CC[C@@H](O)[C@H](OC)C3)[C@H](C)[C@@H](O)CC1=O)[C@H](C)C[C@@H]2OC,active: 2.62 µM,
CN(CC(=O)Nc1ccc(OC(F)(F)F)cc1)C1CCCCC1,"inconclusive: 11.7 µM [inhibitor, single point]",
O=C(COc1ccccc1F)Nc1ccc(S(=O)(=O)NCc2ccco2)cc1,"inconclusive: 11.7 µM [inhibitor, single point]",
CCn1c(=N)n(CC(=O)c2ccc(Cl)c(Cl)c2)c2ccccc21,,inactive: 28.6%
CCCCN(CC)C(=O)Cn1cnc2sc(C)c(S(=O)(=O)N3CCC(C)CC3)c2c1=O,,inactive: 10.2%
CCN(CC)S(=O)(=O)c1ccc(OC(C)C)c(NC(=O)c2c3c(nc4ccccc24)CCN(Cc2ccccc2)C3)c1,active: 2.94 µM,
COc1ccc(NS(=O)(=O)c2cc(NC(=O)C3CCCCC3)ccc2N2CCOCC2)cc1,"inconclusive: 18.5 µM [inhibitor, single point]",
Brc1cccc(-c2cnco2)c1,,inactive: 1%
CN(CC(=O)NCC(c1ccco1)N1CCCCC1)S(=O)(=O)c1ccc(Cl)cc1 (stereo unspecified),"inconclusive: 5.22 µM [inhibitor, partial curve, poor fit]",
CC1C=CCC2C(=O)N(c3cc(Cl)ccc3O)C(=O)C12 (stereo unspecified),,inactive: 0.338%
CCSC1=C(C#N)C2(CCCCC2)C2=C(CC(C)(C)CC2=O)N1,"inconclusive: 2.62 µM [inhibitor, full curve, poor fit]",

SMILES,Potency,"activity change, negative = inhibition"
Cc1cc(-c2nnc3n2N=C(c2ccccc2)CS3)n[nH]1,"inconclusive: 3.7 µM [inhibitor, partial curve]",
COc1ccccc1CNC(=O)c1ccc2c(=O)n(CC3CCCO3)c(=S)[nH]c2c1 (stereo unspecified),"inconclusive: 16.5 µM [inhibitor, partial curve, poor fit]",
COc1ccc(OC)c(C(c2nnnn2Cc2ccccc2)N2CCN(C)CC2)c1 (stereo unspecified),,inactive: 3%
CC(=O)Nc1sc(NC(=O)c2ccc(Cl)cc2)nc1-c1cccs1,,inactive: 9.66%
N#Cc1ccccc1S(=O)(=O)N1CCN(C(=O)c2cn(-c3ccccc3)nc2-c2cccnc2)CC1,"inconclusive: 18.5 µM [inhibitor, single point]",
Cc1cc(NC(=O)CS(=O)(=O)c2cn(Cc3cccc(F)c3)c3ccccc23)no1,"inconclusive: 10.4 µM [inhibitor, partial curve, poor fit]",
O=C(CCc1nnc2n(Cc3ccccc3)c(=O)c3ccccc3n12)NCCCN1CCCCC1,"inconclusive: 18.5 µM [inhibitor, single point]",
CCN1C(=O)[C@H]2[C@@H](c3ccc(-c4cc(C(C)=O)cs4)cc3)N3CCCC[C@@]3(C(=O)OC)[C@H]2C1=O,"inconclusive: 3.29 µM [inhibitor, partial curve, poor fit]",
COC(=O)c1cc(NC(=O)C(C)c2ccc(CC(C)C)cc2)ccc1O (stereo unspecified),"inconclusive: 3.7 µM [inhibitor, full curve, poor fit]",
COc1ccc(CCC(=O)Nc2cc([N+](=O)[O-])ccc2OC)cc1,"inconclusive: 18.5 µM [inhibitor, single point]",
CCN1CCN(c2ccc(S(=O)(=O)N3CCCCC3)cc2NC(=O)c2cc3ccccc3o2)CC1,active: 2.08 µM,
O=C(NNC(=O)C1CC1c1ccccc1)c1ccccc1[N+](=O)[O-] (stereo unspecified),active: 11.7 µM,
CCOC(=O)c1ccc(NC(=O)CCc2nc(-c3ccccc3)no2)cc1,active: 13.1 µM,
NNC(=O)CSc1c(-c2ccccc2)c2cc(Cl)ccc2[nH]c1=O,active: 13.1 µM,
CCCC(C(=O)NCCc1ccc(S(N)(=O)=O)cc1)c1ccccc1 (stereo unspecified),"inconclusive: 0.828 µM [inhibitor, partial curve, poor fit]",
O=C(CSc1nnc(-c2ccco2)n1Cc1ccco1)Nc1ccccc1,"inconclusive: 3.29 µM [inhibitor, partial curve, poor fit]",
Cc1cc(C)nc(SCC(=O)NN)n1,,inactive: -14.5%
CCCCC[C@]12Cc3cc(OC)c(OC)cc3[C@H](O1)c1c(cc(C)oc1=O)O2,"inconclusive: 2.13 µM [inhibitor, single point]",
COc1ccc(C(=O)Nc2ccc3ccccc3n2)cc1OC,"inconclusive: 18.5 µM [inhibitor, single point]",
O=C(/C=C/c1ccco1)c1ccccc1O,,inactive: -5.79%
Fc1cccc(F)c1-n1c(CN2CCCCC2)csc1=S,active: 11.7 µM,
Cc1cc(NC(=O)CSc2nc3ccccc3n2CC(=O)N2CCCCC2)no1,"inconclusive: 5.86 µM [inhibitor, partial curve, poor fit]",
COCCn1c(SCC(=O)N2CCCCC2)nc2c(c1=O)SCC2,"inconclusive: 11.7 µM [inhibitor, single point]",

# An excerpt of these results, with bars between the fields:
SMILES | Potency | activity change, negative = inhibition
Cc1cc(-c2nnc3n2N=C(c2ccccc2)CS3)n[nH]1 | inconclusive: 3.7 µM [inhibitor, partial curve] | 
COc1ccccc1CNC(=O)c1ccc2c(=O)n(CC3CCCO3)c(=S)[nH]c2c1 (stereo unspecified) | inconclusive: 16.5 µM [inhibitor, partial curve, poor fit] | 
